Test results taken from ChEMBL document CHEMBL3046280, “Synthesis of 1-amidoalkyl-2-naphthols and oxazine derivatives with study of their antibacterial and antiviral activities” (Med Chem Res, 2013).

What was measured:
Assay type in all cases: functional, organism-based
[1] = test system: Pseudomonas aeruginosa; assay: Antibacterial activity against Pseudomonas aeruginosa assessed as growth inhibition at 0.042 uM/ml
[2] = test system: Escherichia coli; assay: Antibacterial activity against Escherichia coli assessed as growth inhibition at 0.042 uM/ml
[3] = test system: Staphylococcus aureus; assay: Antibacterial activity against Staphylococcus aureus assessed as growth inhibition at 0.042 uM/ml

## GENTAMICIN
[1]
  inhibition zone (IZ): 27 mm
[2]
  inhibition zone (IZ): 29 mm
[3]
  inhibition zone (IZ): 28 mm
